These are yes or no findings as the source states them, for the method shown. Tags and fused reporters may be left off the sequences shown.
Assays:
Experiment in all cases: SPR; Biacore3000, CM5 chip coated with DNase E7; extrinsic proteins as Im7 fusion proteins overexpressed in E. coli; who was immobilised is not told in the main text; details in the supplementary material; both purified
[1] = biological target: T1, Im7 fusion protein of CyanoP (Thermosynechococcus elongatus) (UniProt Q8DH84)
T1 sequence: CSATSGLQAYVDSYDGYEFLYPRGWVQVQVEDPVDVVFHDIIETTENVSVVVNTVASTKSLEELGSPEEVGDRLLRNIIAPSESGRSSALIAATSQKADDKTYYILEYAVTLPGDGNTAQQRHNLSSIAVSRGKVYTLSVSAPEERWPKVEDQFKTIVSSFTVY

[2] = biological target: T2, Im7 fusion protein of Psb27 (Thermosynechococcus elongatus), Q8DG60; conditions: remark: other sources report otherwise
T2 chain: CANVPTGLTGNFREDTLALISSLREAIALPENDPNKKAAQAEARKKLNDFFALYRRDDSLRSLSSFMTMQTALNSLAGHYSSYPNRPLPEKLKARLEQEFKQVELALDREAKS

[3] = biological target: T3, Im7 fusion protein of CyanoQ (Thermosynechococcus elongatus) (UniProt Q8DHA2)
T3 sequence: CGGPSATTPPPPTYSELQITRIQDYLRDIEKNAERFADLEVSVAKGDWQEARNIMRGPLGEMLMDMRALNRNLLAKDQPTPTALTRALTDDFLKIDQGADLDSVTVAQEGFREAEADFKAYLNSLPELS

B1: PsbV (protein, UniProt P0A386 27-163)
chain: AELTPEVLTVPLNSEGKTITLTEKQYLEGKRLFQYACASCHVGGITKTNPSLDLRTETLALATPPRDNIEGLVDYMKNPTTYDGEQEIAEVHPSLRSADIFPKMRNLTEKDLVAIAGHILVEPKILGDKWGGGKVYY
binding [1]: no binding (tested: up to 100 μM)

B2: CyanoP, Q8DH84 20-183 (protein)
chain: CSATSGLQAYVDSYDGYEFLYPRGWVQVQVEDPVDVVFHDIIETTENVSVVVNTVASTKSLEELGSPEEVGDRLLRNIIAPSESGRSSALIAATSQKADDKTYYILEYAVTLPGDGNTAQQRHNLSSIAVSRGKVYTLSVSAPEERWPKVEDQFKTIVSSFTVY
binding [2]: no binding (tested: up to 100 μM)

B3: CyanoP (protein, UniProt Q8DH84 20-183)
chain: CSATSGLQAYVDSYDGYEFLYPRGWVQVQVEDPVDVVFHDIIETTENVSVVVNTVASTKSLEELGSPEEVGDRLLRNIIAPSESGRSSALIAATSQKADDKTYYILEYAVTLPGDGNTAQQRHNLSSIAVSRGKVYTLSVSAPEERWPKVEDQFKTIVSSFTVY
binding [3]: no binding (tested: up to 100 μM)

Source: PMC4220643
